Measurements reported in PubChem BioAssay AID652243 (Drosophila RNAi Screening Center, 2013).
In all, the deposit lists about 24,000 reagents; below is an unselected part of those with a known target gene and a result. Over the whole deposit, 246 (1%) are marked active. 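Plates not normalised; calls are printed but the firefly/Renilla ratio behind them is not deposited; fold cut for lowering reported inconsistently.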 Raw values vary from plate to plate and are shown uncorrected. Names joined by + are all predicted targets of the reagent. No sequences are given here. Not stated in the record: the amount of reagent.

- Screen: 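Fly genes required for human androgen receptor driven transcription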 (primary screen)
- Cell system: Drosophila S2R+ cells
- Knock-down reagent: long dsRNA against Drosophila genes
- Duration: 72 h (48 h, then 24 h hormone)
- Challenge: synthetic androgen R1881 at 10 nM for 24 h
- Measured: 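Firefly light from an androgen-responsive reporter and Renilla control light per well, raw and unnormalised, for each of two replicates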
- Reading the numbers: firefly reporter light: higher = more light from androgen-responsive reporter; Renilla control light: higher = more constitutive control signal (cell number, transfection)
- Call rule: 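Across duplicate plates, a knock-down whose log firefly/Renilla ratio shifted a set fold down or up from the GFP/LacZ control mean was a hit; the downward cut appears as both 1.5 and 3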
- Meaning of the calls: active = hit: reporter lowered or raised; inactive = no hit

target | dsRNA | firefly reporter light, replicate 1 | firefly reporter light, replicate 2 | Renilla control light, replicate 1 | Renilla control light, replicate 2 | outcome
CngB | DRSC04297 | 5.23e5 | 8.82e5 | 2.70e6 | 2.49e6 | inactive
CG43795 + SkpF | DRSC04120 | 2.61e5 | 2.06e5 | 1.86e6 | 1.36e6 | inactive
Mis12 | DRSC10299 | 1.41e5 | 1.70e5 | 1.97e6 | 1.86e6 | inactive
CG3939 | DRSC18498 | 3.01e5 | 4.42e5 | 4.37e6 | 3.18e6 | inactive
TyrR | DRSC16242 | 1.63e5 | 1.09e5 | 1.38e6 | 1.49e6 | inactive
CG12480 | DRSC19460 | 4.58e5 | 4.37e5 | 2.35e6 | 2.86e6 | inactive
CG12480 | DRSC27987 | 8.02e5 | 7.22e5 | 2.03e6 | 1.36e6 | inactive
CG5435 | DRSC02860 | 2.96e5 | 2.70e5 | 2.04e6 | 1.95e6 | inactive
larp | DRSC14728 | 1.97e5 | 2.96e5 | 2.27e6 | 2.90e6 | inactive
larp | DRSC16984 | 1.22e5 | 1.46e5 | 2.77e6 | 3.28e6 | active
larp | DRSC21856 | 8.03e5 | 9.74e5 | 1.42e6 | 1.47e6 | inactive
larp | DRSC24427 | 7.98e5 | 6.99e5 | 8.70e5 | 1.06e6 | inactive
larp | DRSC28325 | 4.72e5 | 6.40e5 | 8.92e5 | 1.47e6 | inactive
Antdh | DRSC20307 | 5.30e5 | 3.91e5 | 3.19e6 | 3.52e6 | inactive
Antdh | DRSC25689 | 7.89e5 | 1.12e6 | 1.02e6 | 1.19e6 | inactive
CG32054 | DRSC10684 | 2.41e5 | 1.94e5 | 2.74e6 | 1.40e6 | inactive
CG32054 | DRSC24449 | 5.26e5 | 6.02e5 | 5.34e5 | 5.57e5 | inactive
CG14589 | DRSC04866 | 3.05e5 | 3.23e5 | 1.76e6 | 1.98e6 | inactive
Cpr30F | DRSC02908 | 8.66e5 | 6.91e5 | 1.98e6 | 2.45e6 | inactive
Cpr30F | DRSC25531 | 7.06e5 | 7.82e5 | 9.55e5 | 7.96e5 | inactive
ple | DRSC11383 | 50187 | 70140 | 6.63e5 | 9.06e5 | inactive
l(2)gl | DRSC00825 | 4.10e5 | 5.07e5 | 2.37e6 | 4.46e6 | inactive
l(2)gl | DRSC39145 | 4.77e5 | 3.78e5 | 2.09e6 | 1.14e6 | inactive
FDY | DRSC38616 | 7.33e5 | 8.30e5 | 1.76e6 | 2.05e6 | inactive
CG13157 | DRSC06282 | 2.44e5 | 1.82e5 | 1.21e6 | 1.02e6 | inactive
Alp8 | DRSC04353 | 1.47e5 | 2.07e5 | 2.07e6 | 2.35e6 | active
Alp8 | DRSC27635 | 2.47e5 | 3.39e5 | 3.46e5 | 4.57e5 | inactive
Alp8 | DRSC39300 | – | – | – | – | inactive
Ask1 | DRSC16789 | 3.32e5 | 3.07e5 | 3.20e6 | 3.95e6 | inactive
Ask1 | DRSC21697 | 6.49e5 | 5.30e5 | 2.15e6 | 1.44e6 | inactive
Ask1 | DRSC36689 | – | – | – | – | inactive
Ask1 | DRSC36690 | – | – | – | – | inactive
tadr | DRSC03177 | 1.02e6 | 5.62e5 | 2.74e6 | 2.71e6 | inactive
Dtg | DRSC15998 | 50883 | 78321 | 2.92e5 | 6.21e5 | inactive
Dtg | DRSC26947 | 3.55e5 | 3.39e5 | 6.48e5 | 4.72e5 | inactive
CG32751 | DRSC21770 | 4.10e5 | 4.15e5 | 6.18e5 | 1.13e6 | inactive
Acsl | DRSC07252 | 1.17e6 | 1.60e6 | 1.16e6 | 1.17e6 | inactive

Laid out differently: entries from further up.
{"target": "CG14589", "dsRNA": "DRSC04866", "firefly reporter light, replicate 1": 3.05e5, "firefly reporter light, replicate 2": 3.23e5, "Renilla control light, replicate 1": 1.76e6, "Renilla control light, replicate 2": 1.98e6, "outcome": "inactive"}
{"target": "Cpr30F", "dsRNA": "DRSC02908", "firefly reporter light, replicate 1": 8.66e5, "firefly reporter light, replicate 2": 6.91e5, "Renilla control light, replicate 1": 1.98e6, "Renilla control light, replicate 2": 2.45e6, "outcome": "inactive"}
{"target": "Cpr30F", "dsRNA": "DRSC25531", "firefly reporter light, replicate 1": 7.06e5, "firefly reporter light, replicate 2": 7.82e5, "Renilla control light, replicate 1": 9.55e5, "Renilla control light, replicate 2": 7.96e5, "outcome": "inactive"}
{"target": "ple", "dsRNA": "DRSC11383", "firefly reporter light, replicate 1": 50187, "firefly reporter light, replicate 2": 70140, "Renilla control light, replicate 1": 6.63e5, "Renilla control light, replicate 2": 9.06e5, "outcome": "inactive"}
{"target": "l(2)gl", "dsRNA": "DRSC00825", "firefly reporter light, replicate 1": 4.10e5, "firefly reporter light, replicate 2": 5.07e5, "Renilla control light, replicate 1": 2.37e6, "Renilla control light, replicate 2": 4.46e6, "outcome": "inactive"}
{"target": "l(2)gl", "dsRNA": "DRSC39145", "firefly reporter light, replicate 1": 4.77e5, "firefly reporter light, replicate 2": 3.78e5, "Renilla control light, replicate 1": 2.09e6, "Renilla control light, replicate 2": 1.14e6, "outcome": "inactive"}
{"target": "FDY", "dsRNA": "DRSC38616", "firefly reporter light, replicate 1": 7.33e5, "firefly reporter light, replicate 2": 8.30e5, "Renilla control light, replicate 1": 1.76e6, "Renilla control light, replicate 2": 2.05e6, "outcome": "inactive"}

Continued:
target | dsRNA | firefly reporter light, replicate 1 | firefly reporter light, replicate 2 | Renilla control light, replicate 1 | Renilla control light, replicate 2 | outcome
CG13074 | DRSC09957 | 2.58e5 | 2.28e5 | 2.46e6 | 2.04e6 | inactive
CG5662 | DRSC19957 | 4.07e5 | 3.26e5 | 2.92e6 | 3.50e6 | inactive
nis | DRSC00290 | 5.29e5 | 8.25e5 | 2.60e6 | 2.54e6 | inactive
Obp99c | DRSC16262 | 80687 | 91955 | 1.08e6 | 1.69e6 | inactive
swaPsi | DRSC21685 | 7.55e5 | 7.72e5 | 1.80e6 | 1.52e6 | inactive
CG11983 | DRSC14458 | 1.52e5 | 1.73e5 | 3.32e6 | 3.18e6 | inactive
CG8944 | DRSC20128 | 3.40e5 | 4.32e5 | 3.36e6 | 3.63e6 | inactive
CG8944 | DRSC21342 | 5.85e5 | 4.52e5 | 1.36e6 | 1.33e6 | inactive
CG8944 | DRSC23741 | 1.37e6 | 1.17e6 | 1.08e6 | 9.54e5 | inactive
CG4822 | DRSC00669 | 1.04e6 | 1.06e6 | 3.67e6 | 1.90e6 | inactive
CG34210 | DRSC04579 | 3.62e5 | 3.39e5 | 2.58e6 | 1.83e6 | inactive
L2HGDH | DRSC02082 | 6.41e5 | 9.24e5 | 1.26e6 | 1.16e6 | inactive
L2HGDH | DRSC25864 | 3.20e5 | 4.22e5 | 1.07e6 | 9.89e5 | inactive
Arp3 | DRSC09669 | 6.35e5 | 8.87e5 | 1.25e6 | 1.45e6 | inactive
Arp3 | DRSC29666 | 8.35e5 | 1.10e6 | 1.42e6 | 1.42e6 | inactive
CG11504 | DRSC14318 | 1.22e5 | 65473 | 7.83e5 | 5.44e5 | inactive
CG31345 | DRSC14193 | 52438 | 63927 | 8.73e5 | 1.20e6 | inactive
CG31345 | DRSC14847 | 1.26e5 | 1.06e5 | 2.06e6 | 1.46e6 | inactive
Pcl | DRSC07503 | 5.47e5 | 4.73e5 | 5.29e5 | 6.13e5 | inactive
Pcl | DRSC24868 | 4.57e5 | 3.87e5 | 5.19e5 | 3.25e5 | inactive
Cerk | DRSC12285 | 28849 | 31358 | 3.12e5 | 3.52e5 | active
Cerk | DRSC36910 | – | – | – | – | inactive
Cerk | DRSC36911 | – | – | – | – | inactive
